Over roughly 33,000 sequences, “E-score (-0.5 to 0.5)” has its median near -0.016; the highest 2% begin near 0.3. The list shows a part of the results.
biological target: T1, Yer184c (UniProt P39961); assay: PBM E-score (8-mer binding enrichment) (E-score (-0.5 to 0.5)); higher = stronger / more preferred TF binding; conditions: protein concentration: 100 nM; construct: GST-full length
T1 sequence: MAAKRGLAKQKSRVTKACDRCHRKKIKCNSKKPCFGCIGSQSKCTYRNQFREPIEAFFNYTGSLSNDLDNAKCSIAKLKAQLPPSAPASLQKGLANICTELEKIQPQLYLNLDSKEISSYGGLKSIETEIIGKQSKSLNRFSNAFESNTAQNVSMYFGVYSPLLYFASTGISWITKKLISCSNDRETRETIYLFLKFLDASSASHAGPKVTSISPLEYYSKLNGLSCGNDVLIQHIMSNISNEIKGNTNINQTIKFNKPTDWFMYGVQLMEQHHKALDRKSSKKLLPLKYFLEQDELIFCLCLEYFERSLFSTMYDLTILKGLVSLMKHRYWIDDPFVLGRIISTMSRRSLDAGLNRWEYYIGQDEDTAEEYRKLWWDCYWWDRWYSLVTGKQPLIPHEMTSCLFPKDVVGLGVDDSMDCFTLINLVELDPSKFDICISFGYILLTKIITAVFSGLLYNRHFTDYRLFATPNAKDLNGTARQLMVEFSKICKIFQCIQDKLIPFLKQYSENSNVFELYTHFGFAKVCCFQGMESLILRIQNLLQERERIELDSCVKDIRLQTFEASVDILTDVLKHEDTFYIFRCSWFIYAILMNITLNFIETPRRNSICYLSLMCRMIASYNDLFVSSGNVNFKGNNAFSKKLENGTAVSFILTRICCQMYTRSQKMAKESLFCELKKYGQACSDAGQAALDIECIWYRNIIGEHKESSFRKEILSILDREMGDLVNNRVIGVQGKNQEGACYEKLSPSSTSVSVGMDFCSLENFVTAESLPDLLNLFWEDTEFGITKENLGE
Outline: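 Masliner-normalised scans of fluorescent anti-GST signal were the basis for scoring. That signal came from GST-tagged yeast transcription factors applied at about 100-200 nM to double-stranded universal all-10-mer Agilent arrays on fresh or once-stripped slides. Each ungapped eight-base word, pooled with its reverse complement, received an E-score from the Universal PBM Analysis Suite.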

Sequence | PBM E-score
ATGGAAGG | -0.078
GATCCGTA | 0.17
CCTTGAGC | 0.018
GAACCTGC | 0.0118
AAGCCGTC | 0.187
ACTGTCAT | -0.0219
AGATTTAC | 0.0377
AAACAGGC | -0.131
GGAGAGAA | 0.0818
AAGAACAA | 0.269
ATGGTACC | -0.119
ACCGCTCC | 0.00452
AACAGTCA | -0.191
ACAGTCAT | -0.136
CGGTAACC | 0.155
AGTGGCAC | -0.152
GTTCAAAC | 0.217
ATGAAGAG | 0.11
ATGACTCA | -0.0915
CTTCGAAA | 0.0621
AAGTGAGG | -0.173
CAAGAATA | 0.231
ATCTACGC | 0.166
TGGTAGAA | 0.0215
TAAAAGAA | 0.177

Sequence | PBM E-score
CAGGCGGG | -0.181
CCCTACCG | -0.295
CATACTGC | 0.0531
AAATCTAG | -0.156
ATGCCAAC | -0.0847
CAACGATA | 0.123
AGGAGTCG | -0.257
GCGACTGA | -0.137
GTGTTAGA | 0.059
CAGCACAG | -0.022
AGATCCGC | 0.0835
GCTGGCAA | -0.0189
TCAGGCGA | -0.0392
ATTAGTGC | 0.168
AATAGGGA | -0.238
CACAGCGG | -0.0937
GAACAATA | 0.313
CCTGGATC | -0.233
ATCTTCTC | 0.0325
CTGCGCAG | -0.0745
CTCACGCA | 0.164
CCATGCCC | -0.108
ACTTGTTA | 0.0716
ACCCGCAA | -0.125
CGAACCTA | 0.111

In a second layout: results already given
Sequence	PBM E-score
CCTGGATC	-0.233
ATCTTCTC	0.0325
CTGCGCAG	-0.0745
CTCACGCA	0.164
CCATGCCC	-0.108
ACTTGTTA	0.0716
ACCCGCAA	-0.125

The listing continues.

Sequence | PBM E-score
ATTATAAC | 0.104
CTGGGCCA | -0.301
CCTGCCCG | -0.0541
AGAATGTG | -0.217
GTGAGATA | 0.0346
AGACTAAA | 0.0357
CACGCCAG | -0.141
CCACGAAG | -0.191
ATCCGAGC | 0.219
CTTTACCA | -0.253
CCGTGCCG | 0.312
CGTACAAA | 0.126
ACTATCTA | 0.141
ATTCCGTG | 0.313
CAGAAGAG | -0.142
CCGTCGCG | -0.021
AAATTTGT | 0.213
GAGAAGAC | -0.0805
AGGAAGAT | 0.0204
GGTGTTTA | 0.0427
CCGAGAGG | 0.0688
GTTCGGGA | 0.226
CAGCCTCG | -0.0314
GAGCAAGA | 0.052
CGCTCAAC | -0.0292

Sequence | PBM E-score
ACATTCGA | 0.035
ATAATAAT | 0.207
AGCAGGAT | -0.0872
ACCCCCGC | -0.114
GAACAGAC | 0.18
GTTGGGAA | -0.0472
GGGATATA | 0.0967
AGCCGGGC | 0.172
CGTAGGAG | -0.0334
ACTGGTCC | -0.111
ATGTTTAC | 0.0534
CACGTCAG | -0.318
ATAACTAA | 0.14
AAACCTTG | -0.189
GGAGGTGA | 0.0707
TCCATCAA | 0.115
GATGCTTA | -0.0141
AGTCAACC | -0.18
GGCTGCAC | -0.0146
GGCATTAA | 0.0804
AAGTATCT | 0.0706
GCGCAGAA | 0.0898
GACAGGCA | -0.108
ACTGAAGT | 0.0383
GTGGGTAA | -0.172

Quoted at random: 3 records from the list
Sequence | PBM E-score
ACCCCCGC | -0.114
GGCATTAA | 0.0804
ACATTCGA | 0.035

Next part.

Sequence | PBM E-score
ATTCGATC | 0.111
CGGTGTAA | 0.151
AAAGTATT | 0.047
CACGCGCC | -0.00729
GGTATAGA | -0.0742
GAGCAGGC | -0.1
AGCCCCGA | -0.181
ATCATAAG | 0.13
TAGGCCAA | 0.0434
AGCACGGC | 0.148
ACAGGAGT | -0.0872
GAGTCCCC | -0.342
ATCCAATC | -0.0526
ACTTAGAA | -0.0208
TACGCTGA | 0.0765
GTCAGAGA | -0.0567
TTATGGAA | 0.0949
ATGCAAAC | -0.14
ATTGACGA | 0.114
CAGCCTGA | -0.0443
CCCATAAA | 0.024
ACTTTTAC | 0.283
ATCCGGAG | 0.398
CGCCTGTA | -0.0648
AATAAATG | 0.174

Sequence | PBM E-score
AAACAATG | 0.0542
GTGGGCTA | -0.175
AGAAGTCG | -0.241
CATGTCTA | -0.134
ACATGCAT | -0.165
CCCACCGG | 0.123
GTGGATGA | -0.134
AGAAATAA | 0.19
GCCATAGA | -0.264
AATGGTGA | -0.0907
AATCTTAA | 0.0382
CGGCGAAA | 0.35
CGGGCTGA | -0.0945
AGACTTAA | 0.0589
ATCAAAGC | 0.149
TAGCTACA | 0.0414
TAGCGAAA | 0.119
ACAGCTGT | 0.0316
TCACCGGA | 0.294
GGAGAAAC | 0.0894
CGCGGCGC | 0.259
ACATAGAT | 0.0877
CAAGAGAC | -0.151
ATCGCTGA | 0.0467
CCCCACAC | -0.353

Sequence | PBM E-score
CCCCTTTC | -0.195
ATGTGATG | -0.143
CAAACGGA | 0.267
ACACTGCG | -0.0646
CTACCTCC | -0.0708
AAGGAGGG | -0.149
AAAGTGCA | -0.0658
ACCCATAC | -0.199
ACTGCCCT | -0.155
AAAAAGGC | 0.121
GACTTGTA | -0.0964
TCCAGACA | -0.14
AGCCCAGG | -0.268
CCTCCTCA | -0.206
AACTGAGT | 0.112
AGACACGC | -0.0415
AATGGTAT | -0.0602
GAGACGCC | -0.0631
GTAACTCA | -0.0122
GTCATGAC | 0.0772
ACCAAATG | -0.11
ACCCTAGT | -0.249

Reference: the supplement of paper PMC3334620
